At least one compound was matched to its structure with a doubt left.
Tested on: murine macrophage cell line, RAW 264.7
Assay: Nitric oxide (NO) release from LPS-induced RAW 264.7 cells (Griess Reagent System)
Type: cell-based
Conditions: P<0.001
Description: 10^5 cells from a murine macrophage cell line, RAW 264.7, were seeded in 96-well plates in a medium containing 1% FBS, 1% Glutamine and 1% Pen/strep in DMEM. […] In addition, positive control cells were treated with 20 μM dexamethasone. Nitric oxide (NO) release was tested after incubation at 37° C., 5% CO2 using the Griess Reagent System. The method is based on the chemical diazotization reaction that was originally described by Griess in 1879, which uses sulfanilamide and N-1-napthylethylenediamine dihydrochloride (NED) under acidic (phosphoric acid) conditions. This system detects NO2^− in a variety of biological and experimental liquid matrices such as tissue culture medium that was tested in this study.

Measured: change in NO release from negative control (one-way ANOVA, words)

C[C@@H]1C[C@H]2[C@@H]3CCC4=CC(=O)C=C[C@]4(C)[C@@]3(F)[C@@H](O)C[C@]2(C)[C@@]1(O)C(=O)CO [dexamethasone]
highly significant: FIG. 1: 20 μM dexamethasone positive control | FIG. 2: 20 μM dexamethasone positive control | FIG. 3: 20 μM dexamethasone positive control

Source: patent US11266701B2, “Synergistic combinations of caffeine, ginkgo biloba and beta-phenylethylamine” (TRINUTRA LTD., priority 2016, dated 2022)
